Laboratory results published in publication PMC6453957.

Sequences of proteins named here, by UniProt entry; tags and fusion partners are left off. A change or cut given only in a name is not applied to a line headed by its entry.
UniProt Q07955, whole entry: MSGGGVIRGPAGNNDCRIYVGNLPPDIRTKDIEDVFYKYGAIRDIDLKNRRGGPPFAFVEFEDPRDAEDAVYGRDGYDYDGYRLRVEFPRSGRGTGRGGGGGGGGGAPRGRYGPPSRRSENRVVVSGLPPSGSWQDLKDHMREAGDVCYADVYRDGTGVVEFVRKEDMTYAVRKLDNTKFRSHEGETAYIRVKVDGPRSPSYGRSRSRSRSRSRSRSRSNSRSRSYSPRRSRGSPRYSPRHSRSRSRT
UniProt P26599: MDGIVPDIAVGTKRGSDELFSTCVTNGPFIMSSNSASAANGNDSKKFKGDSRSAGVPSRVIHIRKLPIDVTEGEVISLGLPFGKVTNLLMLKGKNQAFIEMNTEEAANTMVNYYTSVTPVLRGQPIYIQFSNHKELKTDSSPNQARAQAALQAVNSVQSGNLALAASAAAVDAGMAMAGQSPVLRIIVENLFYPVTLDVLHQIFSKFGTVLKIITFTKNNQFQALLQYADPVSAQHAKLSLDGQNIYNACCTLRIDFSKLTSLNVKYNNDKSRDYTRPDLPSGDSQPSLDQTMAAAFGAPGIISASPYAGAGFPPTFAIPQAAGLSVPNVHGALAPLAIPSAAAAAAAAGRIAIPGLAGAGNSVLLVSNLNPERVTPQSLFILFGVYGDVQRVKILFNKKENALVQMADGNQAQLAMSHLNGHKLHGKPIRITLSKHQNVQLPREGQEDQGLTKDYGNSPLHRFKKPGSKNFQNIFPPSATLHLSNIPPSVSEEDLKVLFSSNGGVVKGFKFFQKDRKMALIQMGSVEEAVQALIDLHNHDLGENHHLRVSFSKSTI

Tests used:
RBFOX1 RRM = target: T1, RBFOX1 RRM (UniProt Q9NWB1); test: NMR 1H-15N HSQC titration; conditions: 313 K, only small shifts, NMR: NMR buffer (RNA in T40), recombinant protein, residues 109-208, protein details: N-terminal 6xHis
T1 sequence (looked up): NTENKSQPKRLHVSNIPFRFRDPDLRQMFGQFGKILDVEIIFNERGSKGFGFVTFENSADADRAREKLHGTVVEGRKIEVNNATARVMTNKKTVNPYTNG

SRSF1 = SRSF1 (UniProt Q07955); test: pull-down, immunoblot; conditions: HEK293 nuclear extract, 2'-O-methyl on every nucleotide, switchSENSE titration: T100 (10 mM Tris-HCl pH 7.4, 100 mM NaCl, 0.05% Tween20), 37 C, sizing: T40 (same with 40 mM NaCl), protein in an extract, label: 5' biotin, synthetic backbone
PTBP1 = PTBP1 (UniProt P26599); test: pull-down, immunoblot; conditions: HEK293 nuclear extract, 2'-O-methyl on every nucleotide, switchSENSE titration: T100 (10 mM Tris-HCl pH 7.4, 100 mM NaCl, 0.05% Tween20), 37 C, sizing: T40 (same with 40 mM NaCl), protein in an extract, label: 5' biotin, synthetic backbone
RBFOX2 = test: pull-down, immunoblot; conditions: HEK293 nuclear extract, 2'-O-methyl on every nucleotide, switchSENSE titration: T100 (10 mM Tris-HCl pH 7.4, 100 mM NaCl, 0.05% Tween20), 37 C, sizing: T40 (same with 40 mM NaCl), protein in an extract, label: 5' biotin, synthetic backbone

| Sequence | binding result (RBFOX1 RRM) | binding result (SRSF1) | binding result (PTBP1) | binding result (RBFOX2) |
| --- | --- | --- | --- | --- |
| UCAGAGGA [SRSF1 motif control RNA] | binds more weakly |  |  |  |
| CGCAGGACGCAGGACGCAGGA [biSF2i2] |  | binds |  |  |
| CUCUCUCUCUCUCUCUCUCUCUCU [biPTBP1i] |  |  | binds |  |
| GCAAUCCGCAAUCCGCAAUCC [biSCRM] |  | no binding | no binding | no binding |

For part of these data: Weaker means in comparison with the reference protein, sequence or condition of that experiment. For part of these data: Protein sequences can lack the tags named with them. For part of these data: For at least one entry, the source does not settle the construct or the ends of the probe. For part of these data: At least one result comes from cells or an extract, where the contact may be indirect. For part of these data: A negative result means that nothing was seen under these conditions.
